Earlier results in patent US4127671A, “P-acetamidophenyl diethylaminoacetate” (Societe Anonyme dite: HEXACHIME, priority 1977, dated 1978).

Details: p-acetamidophenol, background statement; cited from earlier work

For `CC(=O)Nc1ccc(O)cc1` [P-Acetamidophenol], which solubility in water is on record?
Its solubility in water is “practically insoluble in water”.
